Data published in US6407233B1, “Halogen pyrimidines and its use thereof as parasite abatement means” (Bayer Aktiengesellschaft, priority 1996, dated 2002).
Some results were stated once for a whole list of compounds, not compound by compound. At least one compound was matched to its structure with a doubt left.

Columns and labels:
Format in all cases: in vivo
Venturia inaequalis = test: Venturia test (apple)/protective; conditions: protective, active compound concentration 10 ppm, evaluated 12 days after inoculation
Plasmopara viticola = test: Plasmopara test (vines)/protective; conditions: protective, active compound concentration 100 ppm, evaluated 6 days after inoculation
Phytophthora infestans = conditions: tomato, protective, active compound concentration 100 ppm, evaluated 3 days after inoculation
Pyricularia oryzae = conditions: rice, protective, concentration of active compound 0.05%, evaluated 4 days after inoculation
Sphaerotheca fuliginea = test: Sphaerotheca test (cucumber)/protective; conditions: protective, active compound concentration 100 ppm, evaluated 10 days after inoculation

**Q.** With `CON=C(C1=NOCCO1)c1ccccc1Oc1ncnc(Oc2cc(C)cc(C)c2C)c1F` [Example 14] as the molecule, how does the efficacy (Venturia inaequalis) read?
**A.** up to 100%

**Q.** What about the efficacy (Plasmopara viticola) of the same molecule?
**A.** up to 100%

**Q.** `CON=C(C1=NOCCO1)c1ccccc1Oc1ncnc(Oc2cccc3c2CC(C)C3=O)c1F` (centres unmarked) [Example 40] was tested. Which efficacy (Phytophthora infestans) did it give?
**A.** over 90%

**Q.** What about the efficacy (Plasmopara viticola) of the same molecule?
**A.** up to 100%

**Q.** With `CON=C(C1=NOCCO1)c1ccccc1Oc1ncnc(Oc2ccccc2I)c1F` [Example 77] as the molecule, how does the efficacy (Phytophthora infestans) read?
**A.** over 90%

**Q.** What about the efficacy (Venturia inaequalis) of the same molecule?
**A.** up to 100%

**Q.** What about the efficacy (Plasmopara viticola) of the same molecule?
**A.** up to 100%

**Q.** Which efficacy (Venturia inaequalis) does the source give for `C#CC(=O)c1ccccc1Oc1ncnc(Oc2ccccc2C(=NOC)C2=NOCCO2)c1F` [Example 39] here?
**A.** up to 100%

**Q.** And the efficacy (Plasmopara viticola)?
**A.** up to 100%

**Q.** With `CCN(CC)C(=O)Oc1ccccc1Oc1ncnc(Oc2ccccc2C(=NOC)C2=NOCCO2)c1F` [Example 35] as the molecule, how does the “efficacy in comparison with the untreated control” value (Pyricularia oryzae) read?
**A.** up to 100%

**Q.** `CON=C(C1=NOCCO1)c1ccccc1Oc1ncnc(Oc2ccccc2SCc2ccccc2)c1F` [Example 38] was tested. Which efficacy (Venturia inaequalis) did it give?
**A.** up to 100%

**Q.** And the efficacy (Plasmopara viticola)?
**A.** up to 100%

**Q.** How did the efficacy (Sphaerotheca fuliginea) turn out when `CON=C(C1=NOCCO1)c1ccccc1Oc1ncnc(Oc2ccc(Cl)cc2F)c1F` [Example 22] was run?
**A.** up to 100%

**Q.** What about the efficacy (Venturia inaequalis) of the same molecule?
**A.** up to 100%

**Q.** What about the efficacy (Plasmopara viticola) of the same molecule?
**A.** up to 100%

**Q.** For `CON=C(C1=NOCCO1)c1ccccc1Oc1ncnc(Oc2ccccc2SC(F)(F)F)c1F` [Example 47], which efficacy (Phytophthora infestans) is on record?
**A.** over 90%

**Q.** What about the efficacy (Sphaerotheca fuliginea) of the same molecule?
**A.** up to 100%

**Q.** What about the efficacy (Venturia inaequalis) of the same molecule?
**A.** up to 100%

**Q.** What about the efficacy (Plasmopara viticola) of the same molecule?
**A.** up to 100%

**Q.** Which “efficacy in comparison with the untreated control” value (Pyricularia oryzae) does the source give for `CO/C=C(/C1=NOCCO1)c1ccccc1Oc1ncnc(Oc2ccccc2)c1F` [Example 2, 3-{1-[2-(4-phenoxy-5-fluoropyrimid-6-yloxy)-phenyl]-2-methoxyethen-1-yl}-5,6-dihydro-1,4,2-dioxazine] here?
**A.** up to 100%

**Q.** And the efficacy (Phytophthora infestans)?
**A.** over 90%

**Q.** How did the efficacy (Phytophthora infestans) turn out when `CO/N=C(/C1=NOCCO1)c1ccccc1Oc1ncnc(Oc2ccccc2Cl)c1F` [Example 1, 3-{1-[2-(4-<2-chlorophenoxy>-5-fluoropyrimid-6-yloxy)-phenyl]-1-(methoximino)-methyl}-5,6-dihydro-1,4,2-dioxazine] was run?
**A.** over 90%

**Q.** Which results are given for `CON=C(C1=NOCCO1)c1ccccc1Oc1ncnc(Oc2ccccc2Cc2ccccc2)c1F` [Example 63]?
**A.** efficacy (Phytophthora infestans): over 90%; efficacy (Venturia inaequalis): up to 100%; efficacy (Plasmopara viticola): up to 100%

**Q.** How did the efficacy (Venturia inaequalis) turn out when `CON=C(C1=NOCCO1)c1ccccc1Oc1ncnc(Oc2ccccc2OCc2ccc(Cl)cc2)c1F` [Example 45] was run?
**A.** up to 100%

**Q.** And the efficacy (Plasmopara viticola)?
**A.** up to 100%

**Q.** What does the source list for `CON=C(C1=NOCCO1)c1ccccc1Oc1ncnc(Oc2ccccc2C(C)C)c1F` [Example 16]?
**A.** efficacy in comparison with the untreated control (Pyricularia oryzae): up to 100%; efficacy (Venturia inaequalis): up to 100%; efficacy (Plasmopara viticola): up to 100%

**Q.** Which results are given for `CON=C(C1=NOCCO1)c1ccccc1Oc1ncnc(Oc2ccccc2OCc2ccccc2)c1F` [Example 33]?
**A.** efficacy (Venturia inaequalis): up to 100%; efficacy (Plasmopara viticola): up to 100%

**Q.** Which results are given for `CCSCc1ccccc1Oc1ncnc(Oc2ccccc2C(=NOC)C2=NOCCO2)c1F` [Example 76]?
**A.** efficacy (Phytophthora infestans): over 90%; efficacy (Plasmopara viticola): up to 100%

**Q.** Which efficacy (Phytophthora infestans) does the source give for `CO/N=C(/C1=NOCCO1)c1ccccc1Oc1ncnc(Oc2ccccc2)c1F` [Example 3, 3-{1-[2-(4-phenoxy-5-fluoropyrimid-6-yloxy)-phenyl]-1-(methoximino)-methyl}-5,6-dihydro-1,4,2-dioxazine] here?
**A.** over 90%
